# Primary screen of a compound library

Protein sequences, listed by entry. Tags and fused reporters are not part of them. Residues count along the entry.
UniProt Q8IDJ8, 1-583: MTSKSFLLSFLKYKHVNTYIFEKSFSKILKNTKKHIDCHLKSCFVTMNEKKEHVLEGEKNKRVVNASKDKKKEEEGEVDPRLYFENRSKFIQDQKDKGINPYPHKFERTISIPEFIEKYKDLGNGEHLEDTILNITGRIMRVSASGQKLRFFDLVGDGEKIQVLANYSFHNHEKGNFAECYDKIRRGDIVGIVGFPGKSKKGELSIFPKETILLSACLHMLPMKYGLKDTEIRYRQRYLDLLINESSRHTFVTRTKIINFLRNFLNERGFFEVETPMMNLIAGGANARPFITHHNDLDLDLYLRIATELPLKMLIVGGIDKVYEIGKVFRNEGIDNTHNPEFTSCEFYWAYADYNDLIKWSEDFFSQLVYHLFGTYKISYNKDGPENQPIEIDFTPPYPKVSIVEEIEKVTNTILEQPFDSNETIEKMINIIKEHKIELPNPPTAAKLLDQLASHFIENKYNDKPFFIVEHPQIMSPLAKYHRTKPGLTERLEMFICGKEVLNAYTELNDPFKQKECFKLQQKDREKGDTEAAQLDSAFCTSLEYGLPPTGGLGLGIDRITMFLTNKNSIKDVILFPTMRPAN
UniProt P9WFT3, whole entry: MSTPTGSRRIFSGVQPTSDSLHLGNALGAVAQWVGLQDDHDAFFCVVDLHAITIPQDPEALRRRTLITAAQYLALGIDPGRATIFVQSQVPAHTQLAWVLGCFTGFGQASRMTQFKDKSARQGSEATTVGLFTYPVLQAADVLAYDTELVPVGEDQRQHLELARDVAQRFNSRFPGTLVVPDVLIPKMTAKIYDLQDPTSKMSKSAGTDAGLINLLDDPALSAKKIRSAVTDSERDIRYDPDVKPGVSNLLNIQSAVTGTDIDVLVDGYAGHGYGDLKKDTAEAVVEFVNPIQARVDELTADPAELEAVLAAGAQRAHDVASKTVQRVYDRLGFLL

PfKRS1: 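Lysine-tRNA ligase, Plasmodium falciparum 3D7 (UniProt Q8IDJ8). Enzyme assay of the cytosolic lysyl-tRNA synthetase in 384-well plates, read by luminescence. Compounds at 30 µM. Direction is inferred from only a few compounds that gave an IC50; most scored high, so higher reads as stronger inhibition. Of about 69,000 compounds tested this way, about 49 (0.071%) reached 50% or more in at least one test.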
MtTrpRS: 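Tryptophan-tRNA ligase, Mycobacterium tuberculosis (UniProt P9WFT3). Enzyme assay of tryptophanyl-tRNA synthetase; the read-out is not stated. Tested at 10 µM. Direction is not recorded; retested compounds ran higher, which suggests that high means inhibition. Of about 65,000 compounds tested this way, about 64 (0.098%) reached 50% or more in at least one test.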

The filed quantity is “Percent Effect” (%). The controls that fix the scale are not given in the record; negative values are as filed. Compounds were drawn at random from those tested, without regard to their results. A dash means the value is not listed here; it may have been measured.

structure	PfKRS1	MtTrpRS
CN1CCN(Cc2nnc(C3CCN(CC4CC4)CC3)n2C)CC1	-1.078	2.067
Cc1cc(C(=O)NCCC(=O)N2CCCc3ccccc32)no1	3.355	-2.556
O=C(Cc1ccc2c(c1)OCCO2)NC1CCCC1	-5.182	-1.519
CCCn1nc2c(cc1=O)CN(CC(=O)Nc1cc(C)no1)CC2	3.964	-1.016
COCCN1CCC(CNC(=O)C2(c3ccccc3)CCC2)C1 (stereo unspecified)	0.7226	0.07337
O=S(=O)(Cc1ccccc1)N1CCCn2cnc(CN3CCCC3)c2C1	1.685	-4.932
CCOC(=O)N1CCN(C(=O)c2sc(-c3ccc(F)cc3)nc2C)CC1	-0.3603	5.764
CN(C)Cc1ccnc(C2CCCN2Cc2ccc(F)cn2)n1 (stereo unspecified)	-1.119	-
CCN(CC(=O)NC(C)C)S(=O)(=O)N1CCCCCC1	2.39	0.5029
Cc1nc(-c2ccc(CC(=O)N3CCN(C(=O)C(C)C)CC3)cc2)cs1	14.34	0.8073
O=C(Cc1ccccn1)N1CCC2(CC1)[C@H](O)C[C@@H]2O	3.798	7.832
CN(c1ccc(CNc2ccc(Cl)cn2)cc1)S(C)(=O)=O	-2.042	2.621
COc1ccc(-c2ncc(-c3nccn3CCN(C)C)cn2)cc1	-0.4455	-4.524
CNc1nccnc1C1CN(Cc2ccc3[nH]ccc3c2)CCO1 (stereo unspecified)	0.3356	-4.45
CN(CCc1cnn(C)c1)C(=O)CN1C(=O)OC[C@@H]1c1ccccc1	2.532	2.517
O=C(c1cnccn1)N1CCC(Oc2ncccc2Cl)CC1	-2.433	-4.483
COc1ccc(CC2CN(C(=O)c3ocnc3C)CCO2)cc1 (stereo unspecified)	-1.456	1.75
Cc1cc(C)c(CNC(=O)NC2CCOCC2)c(=O)[nH]1	10.1	-5.318
Cc1cc(C2CCCN(C(=O)c3ccc(Cl)o3)C2)n[nH]1 (stereo unspecified)	-1.164	-4.302
O=C1C(Nc2nccn3cnnc23)CCCN1c1ccccc1Cl (stereo unspecified)	-4.738	-3.415
COc1cccc2c1OCC(CNC(=O)Cc1csc(C(C)=O)c1)C2 (stereo unspecified)	-0.1968	5.692
COC1CCN(C(=O)NCC(N)=O)CC(=O)N(C)c2ccccc21 (stereo unspecified)	6.277	-
CC[C@@H](C)[C@H](NC(=O)CCn1cc(C(C)=O)c2ccccc21)C(=O)O	7.239	-2.955
Cc1cc(NCCC(=O)NC2CCCCC2)nc(-c2ccncc2)n1	-3.29	3.297
CNC(=O)C1(CCCc2cccnc2)CCCCN1 (stereo unspecified)	4.524	-0.2508
CCOc1ccccc1OCCN(C)Cc1nccn1C	3.92	1.484
CCOc1cccc(CNCc2ccc(NC(=O)NC(C)C)cc2)c1	0.08039	5.054
COc1ccc(F)c(NCC(C)(C)S(C)(=O)=O)c1	9.93	-0.2981
Clc1ccc(-n2cnnc2CCCN2CCOCC2)cc1	3.709	0.2513
CCNc1cc2c(nn1)CCN(C(=O)c1cc(C)no1)C2	0.5433	-9.714
Cc1ccc(N2C[C@H]3OCC[C@H]3[C@H](C(=O)NC3CCCC3)C2)nn1	-3.692	-6.996
CC(=O)Nc1nc(C2CCN(C(=O)c3cccnc3)CC2)cs1	5.898	1.762
CC(=O)Nc1ccc(SCC(=O)NCC2CCCO2)nn1 (stereo unspecified)	4.427	1.236
Cc1nn(CCN2CCSCC2)cc1CNCc1ccccn1	-0.1997	0.7322
CC(C)c1nc2c(n1C)CCN(CC(=O)NCc1ccccn1)C2	0.4941	-4.438
Cc1nc(CN2CCCC(NCCc3ccccc3Cl)C2)no1 (stereo unspecified)	6.957	1.18
CC(C)N(C)CC(=O)Nc1ccc(-n2ccc(C(N)=O)n2)cc1	2.068	-0.1325
O=C(NCc1cccnc1)c1ccc2nccn2c1	-3.898	-3.544
FC1(F)CCN(Cc2ccncc2)CC12CCN(c1cnccn1)C2 (stereo unspecified)	0.7588	-0.8482
c1cnnc(N2CCCC2CNCc2nc(C3CC3)no2)c1 (stereo unspecified)	3.493	1.411
Cc1nc(CN(C)c2nccc(N(C)C)n2)cs1	0.4417	0.2742
Cc1nc(C)n(C2CCCN(C(=O)c3ccc(OC(C)C)nc3)C2)n1 (stereo unspecified)	-0.3204	-2.806
CN1CC=C(c2noc(CCC(=O)N3CCc4ccccc4C3)n2)CC1	4.367	1.977
Cc1nnc(C(C)N2CCN(Cc3ccc(C#N)cc3)CC2)o1 (stereo unspecified)	2.793	-1.017
CN(C)[C@@H]1CO[C@H](CNC(=O)C2CCCC2)[C@H]1O	-2.951	8.27
Cn1ccnc1C(=O)N1CCCC(Cn2cc(CO)nn2)C1 (stereo unspecified)	0.1535	-1.952
O=C(Cc1n[nH]c2ccccc12)N1CCC(Nc2cccnn2)CC1	2.963	1.981
CC(C)OC(=O)CC(NC(=O)CCn1cccn1)c1ccccc1 (stereo unspecified)	-3.887	0.6721
CCc1n[nH]c(C2CN(C(=O)c3ccc4c(c3)COC4)CCO2)n1 (stereo unspecified)	-1.991	3.762
Cc1noc(C)c1C(=O)N1CCCCC1c1cc(C)n2ccnc2n1 (stereo unspecified)	1.307	0.4706
N#Cc1ccccc1OCCN1CCN(C(=O)C2CCCC2)CC1	-4.306	23.7
CCC(CC)C(CNC(=O)Nc1ccc(OC)cc1)N1CCOCC1 (stereo unspecified)	-5.085	-5.924
O=C(N1CCOCC1)[C@@]12CCO[C@@H]1CCN(Cc1ccncc1)C2	2.09	-
CCOc1ccc(CN2CCCC(c3nn(C)c(=O)n3CC)C2)cn1 (stereo unspecified)	6.552	0.4397
O[C@@H]1C[C@@H](c2nc(Cc3ccccc3)no2)N(Cc2ncc[nH]2)C1	0.7705	5.949
CC(C)CS(=O)(=O)N1C[C@H]2C[C@H](C(=O)N3CCCC3)[C@@H](C1)O2	4.462	-
CC(=O)CSc1sc2c(O)cc(=O)[nH]c2c1C(N)=O	3.729	1.898
CCOC(=O)c1ccc(NC(=O)c2cc3c([nH]c2=O)CCCC3)cc1	6.904	1.168
Cc1csc2c(=O)n(C(C)Cc3cccnc3)cnc12 (stereo unspecified)	5.23	0.8258
Cc1cc(C)n(-c2cccc(C(=O)Nc3n[nH]c(C4CCCO4)n3)c2)n1 (stereo unspecified)	1.499	-0.6159
CN1CCN(c2ncnc3c2c(C(=O)NC2CC2)c2ccccn23)CC1	3.253	6.232

The first 5 entries again:

structure	PfKRS1	MtTrpRS
CN1CCN(Cc2nnc(C3CCN(CC4CC4)CC3)n2C)CC1	-1.078	2.067
Cc1cc(C(=O)NCCC(=O)N2CCCc3ccccc32)no1	3.355	-2.556
O=C(Cc1ccc2c(c1)OCCO2)NC1CCCC1	-5.182	-1.519
CCCn1nc2c(cc1=O)CN(CC(=O)Nc1cc(C)no1)CC2	3.964	-1.016
COCCN1CCC(CNC(=O)C2(c3ccccc3)CCC2)C1 (stereo unspecified)	0.7226	0.07337

Source: ChEMBL document CHEMBL3988442, “University of Dundee, Small-Polar-MMV Screening Library” (2021).